The values that follow come from PubChem BioAssay.

SMILES strings stand for the structures. Values joined by “and” are separate entries in the source; they are usually repeats but may differ in a detail not shown here. Equal values may be shown once. Some of the results follow. Where no call is shown, the source marks the result inconclusive. For some assays here: Results with a measured potency or affinity are listed apart. Residues, ends and D or L forms follow the SMILES beside them. *: point of attachment. For = O=C*

The first assay can be described thus: enhancers of polyQ-expanded androgen receptor AR112-GFP degradation, cell-based, GFP fluorescence (AID 1607). The conditions noted are these: cells expressing AR112-GFP, stronger effect = lower value.
As for `CC(C[N+](C)(C)C)OC(N)=O` (stereo not drawn), the normalized GFP signal was determined as 0.974.
For the molecule `N=c1nc(N2CCCCC2)cc(N)n1O`, the normalized GFP signal amounted to 1.03.
On the same count and under the same terms, the value for `CC[C@H]1OC(=O)[C@H](C)[C@@H](O[C@H]2C[C@@](C)(OC)[C@@H](O)[C@H](C)O2)[C@H](C)[C@@H](O[C@@H]2O[C@H](C)C[C@H](N(C)C)[C@H]2O)[C@](C)(O)C[C@@H](C)C(=O)[C@H](C)[C@@H](O)[C@]1(C)O` was 0.981 and 1.02 and 1.01; that for `CSCCC(NC=O)C(=O)NC(Cc1ccccc1)C(=O)O` (stereo not drawn) (For-Met-Phe-OH; configuration not given here) was 1.17; that for `CC(=O)N[C@@H](Cc1c[nH]c2ccccc12)C(=O)O` was 0.995.
Take `CC1=NN(c2ccccc2)C(=O)C1`: the normalized GFP signal was 0.935.
Same read-out and setting: the value for `CN=C(NC#N)NCCSCc1nc[nH]c1C` was 0.983; that for `Nc1ccc(C(=O)O)c(O)c1` was 0.995.
Consider `NC(=O)NO`, for which the normalized GFP signal was determined as 1.01.
The same measure, in the same setting: the figure for `CC[C@]12CCCN3CCc4c(n(c5ccccc45)[C@](O)(C(=O)OC)C1)[C@@H]32` is 1.01.
Same read-out and setting: the value for `CCCC(C(=O)OCCN(CC)CC)(c1ccccc1)c1ccccc1` was 0.876; that for `CCC[C@@H]1C[C@@H](C(=O)NC(C(C)Cl)C2O[C@H](SC)[C@H](O)[C@@H](O)[C@H]2O)N(C)C1` (stereo partly drawn) was 0.958.
In the case of `CC(=O)Oc1cccc(O)c1`, the normalized GFP signal amounted to 0.989.
Still for that read-out and setting: the value for `CCCN(CCC)S(=O)(=O)c1ccc(C(=O)O)cc1` was 0.947.

Another assay is described as follows: PubChem AID 1608. The conditions noted are these: PC12 mutant huntingtin toxicity, LDH release.
On to `NC[C@@H]1O[C@H](O[C@@H]2[C@@H](CO)OC(O[C@@H]3[C@@H](O)[C@H](N)C[C@H](N)[C@H]3OC3O[C@H](CO)[C@@H](O)[C@H](O)[C@H]3N)[C@@H]2O)[C@H](N)[C@@H](O)[C@@H]1O` (stereo partly drawn), for which the protection score was determined as 1.14.
On to `CC1(C)O[C@@H]2CC3C4C[C@H](F)C5=CC(=O)CC[C@]5(C)C4[C@@H](O)C[C@]3(C)[C@]2(C(=O)CO)O1` (stereo partly drawn), for which the protection score was 0.763.
On the same count and under the same terms, the figure for `CCCOc1ccccc1-c1nc2n[nH]nc2c(=O)[nH]1` is 1.04.
Still for that read-out and setting: the figure for `Nc1ncnc2c1ncn2[C@@H]1O[C@H](CO)[C@@H](O)[C@@H]1O` is 1.12; for `CO[C@@]1(NC(=O)Cc2cccs2)C(=O)N2C(C(=O)O)=C(COC(N)=O)CS[C@@H]21` it is 0.876.
The molecule `O=C(O)c1ccccc1Nc1cccc(C(F)(F)F)c1` showed a protection score of 0.885.
In turn, `CN(C)CCOC(=O)COc1ccc(Cl)cc1` gave a protection score of 0.562.
Same read-out and setting: the figure for `CCn1cc(C(=O)O)c(=O)c2cnc(N3CCNCC3)nc21` is 1.1; for `CC(=O)NO` it is 0.809; for `CSCCC(NC=O)C(=O)NC(CC(C)C)C(=O)NC(Cc1ccccc1)C(=O)O` (stereo not drawn) it is 0.806.
Consider `CO[C@H]1/C=C/O[C@@]2(C)Oc3c(C)c(O)c4c(O)c(c(C=NN5CCN(C)CC5)c(O)c4c3C2=O)NC(=O)/C(C)=C\C=C\C(C)[C@H](O)[C@@H](C)[C@@H](O)[C@@H](C)[C@@H](OC(C)=O)[C@@H]1C` (stereo partly drawn), for which the protection score stood at 0.899.
On to `C[N+](C)(C)CCCCCC[N+](C)(C)C`, for which the protection score turned out to be 0.867.
The same measure, in the same setting: the figure for `CCN(CC)CCNC(=O)c1ccc(N)cc1` is 0.997.
`O=C(Cn1ccnc1[N+](=O)[O-])NCCO` gave a protection score of 0.842.
Molecule `Cc1onc(-c2ccccc2)c1C(=O)NC1C(=O)N2[C@@H]1SC(C)(C)[C@@H]2C(=O)O` (stereo partly drawn) returned a protection score of 0.593.
Same read-out and setting: the value for `O=C(COc1ccc(Cl)cc1)N1CCN(Cc2ccc3c(c2)OCO3)CC1` was 0.886.
On the same count and under the same terms, the figure for `NC(=O)c1cnccn1` is 0.701.
Still for that read-out and setting: the value for `CC1=C2C(=CO[C@H](C)[C@H]2C)C(=O)C(C(=O)O)=C1O` was 1.01.
Consider `O=C(O)c1cc(=O)c2ccccc2o1`, for which the protection score was 0.79.
On the same count and under the same terms, the figure for `COc1ccc2c3c1O[C@H]1C[C@@H](O)C=C[C@@]31CCN(C)C2` is 1.03; for `CCN(CC)CCOc1ccc2c(c1)C(=O)c1cc(OCCN(CC)CC)ccc1-2` it is 0.958.
Regarding `C=C(C)[C@H]1CC=C(C(=O)O)CC1`, the protection score was found to be 0.947.
In turn, `CC(=O)OCC[N+](C)(C)C` showed a protection score of 0.858.
Same read-out and setting: the value for `Oc1cccc(O)c1` was 0.65.
The same measure, in the same setting: the figure for `COc1ccc([C@@H]2CC(=O)c3c(O)cc(O)cc3O2)cc1O` is 0.915; for `CC(C[N+](C)(C)C)OC(N)=O` (stereo not drawn) it is 0.97.
Same read-out and setting: the figure for `N=c1nc(N2CCCCC2)cc(N)n1O` is 0.937; for `CC[C@H]1OC(=O)[C@H](C)[C@@H](O[C@H]2C[C@@](C)(OC)[C@@H](O)[C@H](C)O2)[C@H](C)[C@@H](O[C@@H]2O[C@H](C)C[C@H](N(C)C)[C@H]2O)[C@](C)(O)C[C@@H](C)C(=O)[C@H](C)[C@@H](O)[C@]1(C)O` it is 0.945 and 0.969 and 1.03; for `CSCCC(NC=O)C(=O)NC(Cc1ccccc1)C(=O)O` (stereo not drawn) (For-Met-Phe-OH; configuration not given here) it is 1.16.
Molecule `CC(=O)N[C@@H](Cc1c[nH]c2ccccc12)C(=O)O` had a protection score of 0.863.
Molecule `CC1=NN(c2ccccc2)C(=O)C1` returned a protection score of 1.04.
The same measure, in the same setting: the value for `CN=C(NC#N)NCCSCc1nc[nH]c1C` was 0.952; that for `Nc1ccc(C(=O)O)c(O)c1` was 0.989.
The same measure, in the same setting: the value for `NC(=O)NO` was 1.21; that for `CC[C@]12CCCN3CCc4c(n(c5ccccc45)[C@](O)(C(=O)OC)C1)[C@@H]32` was 1.14.
As for `CCCC(C(=O)OCCN(CC)CC)(c1ccccc1)c1ccccc1`, the protection score was determined as 1.05.
Still for that read-out and setting: the figure for `CCC[C@@H]1C[C@@H](C(=O)NC(C(C)Cl)C2O[C@H](SC)[C@H](O)[C@@H](O)[C@H]2O)N(C)C1` (stereo partly drawn) is 0.836; for `CC(=O)Oc1cccc(O)c1` it is 0.923.
Still for that read-out and setting: the figure for `CCCN(CCC)S(=O)(=O)c1ccc(C(=O)O)cc1` is 0.831.
